# Results taken from PubChem BioAssay AID504467 (National Center for Advancing Translational Sciences (NCATS), 2011).
# In all, about 330,000 compounds went through this assay and about 7,700 (2.3%) were called active. Inconclusive results, whose numbers are uncertain, are shown with a selection of clear calls. Calls come from the whole dose curve; as a rule, active = well fitted inhibition curve with a large enough effect; inconclusive = small, poorly fitted or top-dose-only effect, or effect the other way; inactive = flat fitted curve, though single readings scatter. A potency beside an inconclusive call is a rough fit, not a confirmed value.
# Assay: qHTS screen for small molecules that inhibit ELG1-dependent DNA repair in human embryonic kidney (HEK293T) cells expressing luciferase-tagged ELG1; note: nearly all actives have a fitted effect of over 55% in size
# Conditions: HEK293T ELG1-luciferase reporter, luminescence, 16 h, DNA damage induced by 5-fluorouridine; activity change, negative = inhibition: at 46.1 µM (top of the series)
# How it was run: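 Reporter activity after DNA damage by 5-fluorouridine is monitored. Compound-treated cells incubate 16 hr at 37 °C, then ONE-Glo is added for 30 min before luminescence reading.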
# % is set by controls: 0 for no effect and ±100 for the full control effect; potency is the fitted concentration of half-maximal effect.
Compound,Potency,"activity change, negative = inhibition"
Cc1ccc(C2(c3ccc(C)cc3)NC(=O)N(CC(=O)NCCCN3CCCC3=O)C2=O)cc1,"inconclusive: 16.4 µM [activator, partial curve, poor fit]",
O=C(Cc1ccccc1[N+](=O)[O-])NCc1ccc2c(c1)OCO2,"inconclusive: 14.6 µM [activator, partial curve]",
O=C(NNC(=O)c1ccccc1F)c1cccc(Cl)c1,"inconclusive: 20.6 µM [activator, partial curve]",
CC(=O)NCCn1c(SCc2ccccc2C)nc2ccccc2c1=O,"inconclusive: 16.4 µM [inhibitor, single point]",
Cn1c(=O)c2c(ncn2CC(O)CNc2cccc(Cl)c2)n(C)c1=O (centres undefined),"inconclusive: 9.2 µM [inhibitor, partial curve, poor fit]",
C=CCNC(=S)N1CCN(c2ncc(C(F)(F)F)cc2Cl)CC1,"inconclusive: 16.4 µM [inhibitor, single point]",
CCC1SC2=NC(C)=C(C(=O)OCC(C)C)C(/C=C/c3ccccc3OC)N2C1=O (centres undefined),"inconclusive: 29.1 µM [inhibitor, single point]",
COc1ccc(-c2cc(C)no2)cc1S(=O)(=O)N(C)c1cccc(C)c1,,inactive: -1.69%
Cc1ccc(/C=C\c2nccc3c2[nH]c2ccccc23)cc1,"inconclusive: 7.3 µM [activator, partial curve, poor fit]",
c1ccc(Nc2n[nH]nc2-c2ccccc2)cc1,"inconclusive: 9.2 µM [activator, partial curve, poor fit]",
CCOc1cc(N2CCOCC2)c(OCC)cc1NC(=O)c1cnccn1,active: 10.3 µM,
Cn1c2ccccc2c(=O)c2ccc(F)cc21,,inactive: 23.6%
O=C(NCc1cn2ccccc2n1)c1ccc2c(c1)OCO2,,inactive: 1.02%
O=C1C2CCCN2C(c2ccccc2)N1c1ccc(Cl)cc1 (centres undefined),"inconclusive: 23.1 µM [activator, single point]",
Cc1ccc(C(=O)CN2/C(=C(\O)c3ccccc3)C(=O)c3ccccc3S2(=O)=O)c(C)c1,,inactive: -2.07%
c1ccc(CCn2c(SCc3ccccc3)nnc2-c2ccncc2)cc1,"inconclusive: 5.17 µM [inhibitor, partial curve, poor fit]",
O=C(Nc1nc(-c2cccs2)cs1)C1=COCCO1,"inconclusive: 9.2 µM [activator, partial curve]",
CS(=O)(=O)c1ccc2nc(NC(=O)C3CC(=O)N(c4ccccc4)C3)sc2c1 (centres undefined),,inactive: -5.45%
Cc1c(C(=O)OCC(=O)c2ccc3c(c2)OCCO3)oc2ccccc12,"inconclusive: 16.4 µM [activator, single point]",
N/C(=N\OC(=O)c1ccc2c(c1)OCO2)c1cccc([N+](=O)[O-])c1,"inconclusive: 9.2 µM [activator, partial curve]",
CCN1CCN(C(=S)Nc2cccc([N+](=O)[O-])c2)CC1,"inconclusive: 25.9 µM [activator, partial curve, poor fit]",
CCN(C(=O)CSc1nnc(-c2cccs2)o1)C1CCS(=O)(=O)C1 (centres undefined),,inactive: 9.29%

# Random excerpt: 3 entries already listed
Compound,Potency,"activity change, negative = inhibition"
C=CCNC(=S)N1CCN(c2ncc(C(F)(F)F)cc2Cl)CC1,"inconclusive: 16.4 µM [inhibitor, single point]",
CC(=O)NCCn1c(SCc2ccccc2C)nc2ccccc2c1=O,"inconclusive: 16.4 µM [inhibitor, single point]",
O=C(Nc1nc(-c2cccs2)cs1)C1=COCCO1,"inconclusive: 9.2 µM [activator, partial curve]",

# Further results follow:

Compound,Potency,"activity change, negative = inhibition"
COc1cc2c3c(c1)-c1c(sn(-c4cc(OC)ccc4OC)c1=S)C(C)(C)N3C(=O)C2=O,,inactive: 5.43%
O=C(N/N=C/c1sc(N2CCOCC2)nc1-c1ccccc1)c1cccc(S(=O)(=O)N2CCCC2)c1,active: 5.17 µM,
COc1ccc(NC(=O)c2ccc(NCCCN3CCOCC3)c([N+](=O)[O-])c2)cc1,,inactive: 3.39%
Cc1nc(SCc2nc3ccccc3[nH]2)c2oc3cc(Br)ccc3c2n1,active: 18.3 µM,
COc1ccc2ccccc2c1CNCc1ccccn1,"inconclusive: 20.6 µM [activator, partial curve]",
COC(=O)c1sccc1NC(=O)C1CC=CCC1C(=O)O (centres undefined),"inconclusive: 29.1 µM [inhibitor, single point]",
CCC(CC)C(=O)Nc1cc(C)c2c(=O)oc3ccccc3c2n1,"inconclusive: 18.4 µM [inhibitor, single point]",
Cc1cc(C(=O)CSc2nnc(-c3ccccc3)n2Cc2ccc3c(c2)OCO3)c(C)n1C,"inconclusive: 22.4 µM [inhibitor, single point]",
CCCn1nnc(NC(=O)c2ccccc2Br)n1,"inconclusive: 16.4 µM [activator, partial curve]",
CCCOc1ccc(/C=N/NC(=S)Nc2ccccc2[N+](=O)[O-])c(O)c1,"inconclusive: 11.6 µM [activator, partial curve]",
CC(=O)Nc1ccc(NC(=O)C(C)Sc2nnc(-c3ccc4c(c3)OCO4)o2)cc1 (centres undefined),"inconclusive: 18.3 µM [activator, single point]",
CCCCc1ccc(NC(=O)CC(C)(C)C)cc1,"inconclusive: 18.4 µM [activator, partial curve]",
CC(C)(C)OC(=O)NCCCCCO,,inactive: 17.2%
c1ccc2c(c1)OCC(c1nnc3sc(-c4cnccn4)nn13)O2 (centres undefined),,inactive: 10.4%
CCOc1ccc(/C=N/n2c(C)nc3ccccc3c2=O)cc1,"inconclusive: 13 µM [activator, partial curve, poor fit]",
Cc1cccc(NC(=O)CNC(=O)CCc2nc3sc4c(c3c(=O)[nH]2)CCCC4)c1C,"inconclusive: 5.17 µM [activator, partial curve, poor fit]",
COc1cccc(-c2cc3nc4c(c(NCC(C)(C)CN(C)C)n3n2)CCCC4)c1,,inactive: -12.9%
CCN(C(=O)c1ccc2c(=O)n3c(nc2c1)CCCCC3)c1ccccc1C,"inconclusive: 23.1 µM [inhibitor, partial curve, poor fit]",
COc1ccc(NC(=O)CN2C(=O)CC(C)S(=O)(=O)c3ccccc32)cc1 (centres undefined),"inconclusive: 13 µM [activator, single point]",
C=Cc1ccc(Cn2c(=O)n(CCCOC)c(=O)c3sccc32)cc1,active: 20.6 µM,
OC(COc1ccc2ccccc2c1Cl)CN1CCOCC1 (centres undefined),"inconclusive: 16.4 µM [activator, partial curve]",
O=C(C[n+]1cccc2ccccc21)c1ccc(NC(=O)c2ccccc2)cc1,"inconclusive: 9.2 µM [inhibitor, partial curve, poor fit]",
